Measured values: paper doi:10.1101/2024.09.27.615457 (bioRxiv, 2024)

Assays:
[1] = molecular target: T1, bHLH107 (Arabidopsis thaliana (Col-0)) (UniProt Q9LET0); assay: EMSA
T1 sequence (looked up, limits assumed): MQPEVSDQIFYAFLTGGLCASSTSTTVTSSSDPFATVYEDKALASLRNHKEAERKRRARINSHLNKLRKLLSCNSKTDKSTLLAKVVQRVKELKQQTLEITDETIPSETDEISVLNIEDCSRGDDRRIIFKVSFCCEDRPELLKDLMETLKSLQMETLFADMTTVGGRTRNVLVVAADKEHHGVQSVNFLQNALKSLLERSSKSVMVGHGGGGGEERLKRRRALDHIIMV

HY5 (Arabidopsis) = molecular target: T2, HY5 (Arabidopsis) (UniProt O24646); assay: EMSA
T2 sequence (looked up, limits assumed): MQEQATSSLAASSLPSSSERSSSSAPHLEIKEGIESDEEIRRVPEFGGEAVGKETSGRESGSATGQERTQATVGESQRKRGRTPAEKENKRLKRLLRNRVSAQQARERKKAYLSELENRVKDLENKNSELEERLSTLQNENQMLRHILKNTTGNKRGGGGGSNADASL

Sequence	binding result [1]	binding result (HY5 (Arabidopsis))
CCAAAAGAAGAAGAAAAACCAAAAGAAGAAGAAAAA (double strand) [CuRE]	binds	–
GGTATGTTCCGACACGTTTCCGGCGAGAAC (double strand) [G-box2]	–	binds
AAACTGAAAAACACGTTGTTAGTTTATATG (double strand) [G-box1]	–	binds

The exact form of at least one protein or probe is not confirmed. Protein sequences can lack the tags named with them.
